Measurements published in patent US20110166079A1, “METHODS OF TREATING CANCER WITH APOE PEPTIDES” (COGNOSCI, INC., priority 2008, published 2011).
For at least one compound, name, drawing or mass did not settle the structure. Non-standard residues stand in square brackets, D forms with d. Residues, ends and D or L forms follow the SMILES beside them. Arg(NO2) = N=C(NCCC[C@H](N)C(=O)O)N[N+](=O)[O-]; Aib = CC(C)(N)C(=O)O

Key:
TCL1 transgenic mice = conditions: relative to untreated controls given saline; cited from earlier work
B-CLL cells = assay: Cytotoxicity on B-CLL cells from CLL patients (MTS assay); conditions: read-out: EC50 (cytotoxicity of COG compounds on B-CLL cells), isolated B-CLL cells, 72 hours
Method: To determine whether COG peptides could counteract the overactivation of the Akt/NFkB pathway in B-CLL cells and effectively induce apoptosis, cytotoxicity testing was performed on freshly isolated B-CLL cells from CLL patients with COG peptides. Blood from CLL patients was collected and CD5+/CD19+ CLL cells were isolated using the RosetteSep™ Human B Cell Enrichment Cocktail. This method depletes whole blood of T cells, monocytes, and NK cells using a proprietary antibody cocktail containing anti-CD14, anti-CD2 and anti-CD16 antibodies to remove T cells, monocytes, and NK cells, respectively. The antibody cocktail crosslinks unwanted cells in human whole blood to multiple red blood cells forming immunorosettes thereby increasing the density of the rosetted cells, such that they pellet along with the free RBCs when centrifuged over a buoyant density medium such as Ficoll-Paque®. The highly enriched B-cell or B-CLL cells are left at the interface between Ficoll and the plasma.
COG peptides were applied to the isolated B-CLL cells (0.25×10^6 cells/well in a 96 well plate) for 72 hours, after which viable cells were assessed using the MTS assay ([…]).
Additional B-CLL cells and peripheral blood mononuclear cells (PBMC; i.e., normal B cells) were isolated from leukemia patients and normal volunteers, respectively, and were treated with a range of COG112 concentrations.

Row | Compound | survival of mice (TCL1 transgenic mice) | EC50 (B-CLL cells) [nM]
1 | Nc1nc(F)nc2c1ncn2[C@@H]1O[C@H](CO)[C@@H](O)[C@@H]1O [Fludarabine, fludarabine] | improved | 
2 | CC(C)C[C@H](NC(=O)[C@H](CC(C)C)NC(=O)[C@H](CCCNC(=N)N)NC(=O)[C@H](CCCCN)NC(=O)[C@H](CCCNC(=N)N[N+](=O)[O-])NC(=O)[C@H](CC(C)C)NC(=O)[C@H](CCCNC(=N)N)NC(=O)[C@H](CCCCN)NC(=O)[C@H](CC(C)C)NC(=O)C(C)(C)NC(=O)[C@H](CO)NC(=O)[C@H](C)NC(=O)[C@H](CC(C)C)NC(=O)[C@H](CCCNC(=N)N)NC(=O)[C@@H](NC(=O)[C@H](CCCNC(=N)N)NC(=O)[C@@H](N)CC(C)C)C(C)C)C(=O)O [COG248, LRVRLAS(Aib)LKRL(nitroR)KRLL] (H-LRVRLAS[Aib]LKRL[Arg(NO2)]KRLL-OH) |  | 2300 ± 1300
